Results of single-concentration screens

Protein sequences, listed by entry. Tags and fused reporters are not part of them. Residues count along the entry.
UniProt Q8IDJ8, 1-583: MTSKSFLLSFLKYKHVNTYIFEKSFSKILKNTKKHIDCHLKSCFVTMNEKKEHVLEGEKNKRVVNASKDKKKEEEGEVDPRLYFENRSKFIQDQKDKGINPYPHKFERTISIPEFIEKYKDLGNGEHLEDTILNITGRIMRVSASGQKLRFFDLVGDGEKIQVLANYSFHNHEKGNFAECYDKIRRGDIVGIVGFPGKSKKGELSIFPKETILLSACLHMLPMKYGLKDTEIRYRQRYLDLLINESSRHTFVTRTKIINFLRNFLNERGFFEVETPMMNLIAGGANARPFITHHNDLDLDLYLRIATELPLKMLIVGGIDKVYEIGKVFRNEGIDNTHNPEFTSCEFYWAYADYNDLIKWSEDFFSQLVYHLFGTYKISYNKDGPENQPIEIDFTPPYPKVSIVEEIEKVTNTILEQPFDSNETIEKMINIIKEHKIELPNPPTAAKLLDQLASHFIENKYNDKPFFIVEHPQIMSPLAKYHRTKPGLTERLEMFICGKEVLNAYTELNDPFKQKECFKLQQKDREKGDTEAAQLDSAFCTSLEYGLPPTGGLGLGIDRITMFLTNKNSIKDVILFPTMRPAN
UniProt A4I591, 1-473: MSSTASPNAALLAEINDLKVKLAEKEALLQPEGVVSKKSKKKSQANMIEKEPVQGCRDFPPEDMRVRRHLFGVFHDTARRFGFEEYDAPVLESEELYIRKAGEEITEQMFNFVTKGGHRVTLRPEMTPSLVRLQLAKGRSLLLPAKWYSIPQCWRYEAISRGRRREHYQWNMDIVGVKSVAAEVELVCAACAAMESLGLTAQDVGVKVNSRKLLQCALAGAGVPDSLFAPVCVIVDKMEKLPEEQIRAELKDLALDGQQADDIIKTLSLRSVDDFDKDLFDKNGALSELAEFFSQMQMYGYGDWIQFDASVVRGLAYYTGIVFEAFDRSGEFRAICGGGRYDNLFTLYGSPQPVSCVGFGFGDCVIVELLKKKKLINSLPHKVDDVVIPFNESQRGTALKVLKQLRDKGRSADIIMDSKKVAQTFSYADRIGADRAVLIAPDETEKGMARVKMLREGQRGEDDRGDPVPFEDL

Leishmania in macrophages: 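Cell assay of Leishmania donovani living inside macrophages; the read-out is not stated. Compounds at 30 µM. Higher reads as stronger inhibition (inferred: compounds with an IC50 in retests scored well above the rest). Size under these conditions: about 69,000 compounds, about 1,000 of them at 50% or above in at least one test.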
PfKRS1: 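Lysine-tRNA ligase, Plasmodium falciparum 3D7 (UniProt Q8IDJ8). Enzyme assay of the cytosolic lysyl-tRNA synthetase in 384-well plates, read by luminescence. Tested at 30 µM. Higher reads as stronger inhibition, judged from the few compounds that gave an IC50. About 69,000 compounds were tested under these conditions; 0.071% (about 49) showed 50% or more at least once.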
LiHisRS: 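Histidine-tRNA ligase, Leishmania infantum (UniProt A4I591). Enzyme assay of histidyl-tRNA synthetase; the read-out is not stated. Compounds at 30 µM. The record gives no direction; compounds that gave an IC50 in retests scored well above the rest, so higher reads as stronger inhibition. The assay is labelled LdHisRS but filed under L. infantum. About 69,000 compounds were tested under these conditions; 0.6% (about 410) showed 50% or more at least once.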

Results are given as percent effect.
The controls that fix the scale are not given in the record; negative values are as filed.
Compounds were drawn at random from those tested, without regard to their results.
Two or more numbers in one place are separate tests of the same structure; such repeats can differ widely.
A dash means the value is not listed here; it may have been measured.

| compound | Leishmania in macrophages | PfKRS1 | LiHisRS |
|---|---|---|---|
| `CCn1cc(-c2cc(C(F)(F)F)n(CCCN)n2)cn1` | 15.21 | 3.047 | 12.37 |
| `Cc1ccc(C(N)c2cccs2)cc1` (centres undefined) | -18.58 | 2.76 | 2.857 |
| `Cl.Cl.O=C(NCc1cncc2c1CCN(CC1CCOC1)C2)c1ccco1` (centres undefined) | 29.77 | - | - |
| `O=C(O)C(F)(F)F.[H][C@@]12CCN(Cc3cccc(C)n3)[C@@]1([H])CCN2C(=O)c1cc(C)on1` | 2.773 | - | - |
| `CC(=O)N1CCCN(C(C(=O)O)c2ccc(C)cc2C)CC1` (centres undefined) | 11.79 | 4.033 | 11.39 |
| `CCN(CC)C(=O)Cn1c(C)cc2nc(SC)n(CC(C)C)c(=O)c21` | 6.499 | 4.49 | 11.86 |
| `O=C(O)C(F)(F)F.[H][C@]12CCN(c3ncccn3)[C@@]1([H])CC[C@@H](COCC(=O)N(C)C)O2` | 37.88 | - | - |
| `CCC(Nc1cccc(Oc2ccccn2)c1)C(N)=O` (centres undefined) | 2.543 | 1.532 | 9.821 |
| `O=C(Nc1nncs1)N(Cc1cccc(O)c1)C1CC1` | -7.848 | 3.7 | 25.71 |
| `COc1ncnc(N)c1CNCCc1ccccc1` | -15.13 | 0.1775 | 15.29 |
| `Oc1cc(C2CCCCN2Cc2ccsc2)nc(-c2ccncc2)n1` (centres undefined) | 20.63 | 1.516 | 11.35 |
| `NC(=O)c1csc(N2CCN(Cc3cccc4nsnc34)CC2)n1` | -27.45 | 0.4431 | 15.49 |
| `CNC(=O)COC1COC2(CCN(Cc3cccnc3OC)CC2)C1.O=C(O)C(F)(F)F` (centres undefined) | 9.744 | - | - |
| `Fc1cccnc1OC[C@@]12CCO[C@@H]1CCN(CC1CCOCC1)C2` | - | -1.901 | 26.42 |
| `CC(C)CCC(=O)N1CC[C@@H]2[C@H](CC1)N(S(C)(=O)=O)CCS2(=O)=O` | - | -1.179 | 21.1 |
| `CNC(=O)[C@@H](CC(C)C)N1CCC[C@H]1C(=O)N(C)Cc1ccccc1.Cl` | 14.72 | - | - |
| `CN(CCn1cnnc1)S(=O)(=O)c1ccc(C(F)(F)F)nc1` | -4.255 | -2.908 | 2.439 |
| `COCCN1CCN(Cc2cnc(C(C)C)nc2)CC1` | 19.62 & 4.909 | -2.358 | 9.474 |
| `CC(C)CN1CC2(CCN(C(=O)c3cnccn3)CC2)CC1=O` | -36.7 | 8.343 | 18.07 |
| `Cc1ccc(C)c(S(=O)(=O)NC(=O)COc2cccc(C#N)c2)c1` | 13.68 | 5.107 | 14.91 |
| `Cc1cccc(OCC(=O)NS(=O)(=O)Cc2ccccc2)c1` | 17.29 | 6.753 | 0 |
| `Cn1c(-c2ccccc2Cl)nc2cc(C(=O)NCCOCCO)cnc21` | 5.273 | 6.707 | 8.197 |
| `CC(C)S(=O)(=O)c1ccccc1C(=O)NCC1Cc2ccccc2O1` (centres undefined) | 16.82 | 6.55 | 14.52 |
| `O=C(O)C(F)(F)F.[H][C@]12CCN(c3ncc(C)cn3)[C@@]1([H])CCC(COCC(=O)N(C)C)O2` (some centres undefined) | 4.675 | - | - |
| `O=C(CSC(F)(F)F)N1CCC2(CCCN(C3CCOCC3)C2=O)C1` (centres undefined) | 33.18 | -41.36 | 5.319 |
| `CCOC(=O)CCn1cnc2onc(-c3ccc(OC)cc3)c2c1=O` | 1.856 & -27.98 | 0.2311 | 21.05 |
| `O=C(O)C(F)(F)F.[H][C@@]12CCN(c3nnc(C)s3)C[C@]1([H])O[C@H](C(=O)NC1CCCC1)C2` | -38.11 | - | - |
| `CCOC(=O)c1coc(N2CCC(C(C)N3CCCC3)CC2)n1` (centres undefined) | 31.8 | -0.1466 | 14.88 |
| `CN(CC(=O)NCCc1cc2ccccc2o1)S(C)(=O)=O` | 19.69 | -4.691 | -0.5236 |
| `CN(C)C(=O)c1ccc(N2CCC3(CCC(=O)N(CCO)C3)CC2)nc1` | 20.45 | 4.711 | 11.84 |
| `CC(C)N1CCC2(CCCN(C(=O)c3cncn3C)C2)CC1.O=C(O)C(F)(F)F` | 18.11 | - | - |
| `COCCn1cc(C(=O)N2CCCC2c2cc(C)on2)c2ccccc21` (centres undefined) | 11.55 | 1.714 | 11.11 |
| `COCCNC(=O)c1cc2c(s1)CCN2C(=O)c1ccccc1` | -5.379 | 1.376 | 16.98 |
| `O=C1[C@H]2CN(Cc3ccccc3)C[C@H]2CN1c1cncnc1` | - | 8.013 | 28.77 |
| `Cc1cccc(CN2C(=O)C[C@H]3[C@@H]2CCN3Cc2ccco2)n1` | - | 6.941 | 19.27 |
| `Cc1nnc(CN2CCN(CC(O)c3ccccc3)CC2)o1` (centres undefined) | 25.21 | 2.306 | 14.29 |

Repeated from the top, 2 entries:

compound	Leishmania in macrophages	PfKRS1	LiHisRS
CCn1cc(-c2cc(C(F)(F)F)n(CCCN)n2)cn1	15.21	3.047	12.37
Cc1ccc(C(N)c2cccs2)cc1 (centres undefined)	-18.58	2.76	2.857

Measurements from “University of Dundee, Small-Polar-MMV Screening Library” (2021), ChEMBL document CHEMBL3988442.